Consider 2 substances from article PMC4671672.

Sequences of proteins named here, by UniProt entry; tags and fusion partners are left off. A change or cut given only in a name is not applied to a line headed by its entry.
UniProt P42582: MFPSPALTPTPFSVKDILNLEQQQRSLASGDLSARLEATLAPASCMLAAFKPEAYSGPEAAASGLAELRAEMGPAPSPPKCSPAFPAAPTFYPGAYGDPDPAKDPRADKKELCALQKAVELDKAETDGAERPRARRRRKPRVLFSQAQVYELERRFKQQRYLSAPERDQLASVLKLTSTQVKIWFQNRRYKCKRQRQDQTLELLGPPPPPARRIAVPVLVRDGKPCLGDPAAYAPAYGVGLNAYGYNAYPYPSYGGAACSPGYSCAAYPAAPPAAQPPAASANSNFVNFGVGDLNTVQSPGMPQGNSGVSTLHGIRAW
UniProt Q08369: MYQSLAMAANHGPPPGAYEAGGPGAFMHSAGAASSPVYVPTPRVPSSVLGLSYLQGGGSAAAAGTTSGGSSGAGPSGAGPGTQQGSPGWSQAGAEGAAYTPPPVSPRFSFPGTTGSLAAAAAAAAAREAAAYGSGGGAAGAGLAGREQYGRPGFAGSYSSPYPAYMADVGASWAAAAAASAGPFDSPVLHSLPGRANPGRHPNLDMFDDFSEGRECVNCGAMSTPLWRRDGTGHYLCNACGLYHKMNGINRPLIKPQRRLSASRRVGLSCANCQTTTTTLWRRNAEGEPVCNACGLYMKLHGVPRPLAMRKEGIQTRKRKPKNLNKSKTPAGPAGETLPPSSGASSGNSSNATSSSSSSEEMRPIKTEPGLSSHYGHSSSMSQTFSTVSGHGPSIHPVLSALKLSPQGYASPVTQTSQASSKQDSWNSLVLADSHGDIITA

This assay deals with FLAG-NKX2-5 (mouse NKX2-5, pEF-FLAG-NKX2-5) (mouse) (UniProt P42582). Put plainly: co-IP; protein extracts of COS-1 cells expressing FLAG-NKX2-5 (50 ug) and of COS-1 cells expressing GATA4 (30-84 ug) mixed; agarose bound anti-FLAG M2 antibody, overnight at +4°C in lysis buffer (20 mM Tris pH 7.5, 150 mM NaCl, 1 mM EDTA, 1 mM EGTA, 1% Triton X-100, 2.5 mM sodium pyrophosphate); immunoblot with anti-GATA4 and anti-NKX2-5; bands quantified, unspecific binding subtracted, normalized to input and to …. On the technique in general: A western blot detects proteins with antibodies after separation by electrophoresis.

Results are given in words; binding and its absence hold for the method and conditions named. In cells and extracts the contact can be indirect. Some binding calls cover weakened binding; strength is not graded here.

For the substance “mouse GATA4 S269C+Q274H (from UniProt Q08369 1-441)”, the binding entry was “binds”.
Take “wild type mouse GATA4 (pMT2-GATA4) (from UniProt Q08369 1-441)”: the binding entry is “binds”.
